In PubChem BioAssay AID1347426 (Functional Genomics Laboratory (NCATS/FGL), 2020) one finds median seed-adjusted z-score data, which are given here for 107 sequences.

Screen size: about 31,000 sequences; about 1,400 (4.5%) were called active.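 Rule for the calls: active = median seed-adjusted z-score above 1 or below -1; inactive = the rest.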 The list shows a part of the results.

This experiment is described as follows: Novel Modifiers of Survival Motor Neuron (SMN) Protein: Gene Identification via Genome-wide siRNA Screen.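 Note: luminescence tracks full-length SMN protein made from the SMN2 reporter.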 As to conditions: HEK293T SMN2-luciferase reporter, siRNA knockdown, 72 h; actives lie on both sides. A digest of the protocol: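 HEK293T cells stably expressing an SMN2 splicing/cDNA-luciferase reporter were reverse-transfected with a druggable-genome siRNA library and read by luminescence at 72 hours; hits defined by MAD score above 1.0 or below -1.0.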
Background: In a reporter assay the amount or activity of a reporter protein is the signal.
Consider GAGUUGUCUUUCAAUCGGATT against MYO5C, for which the median seed-adjusted z-score was inactive: 0.

For CGAGCAUUCUCUCUUGAAATT against MED24, the median seed-adjusted z-score is active: -2.3.

Regarding CCACUAGUGAAACAACCAATT against PCLO, the median seed-adjusted z-score is inactive: -0.734.

Turning to CACCCGUCCAUGUACUUCATT against L3MBTL, the median seed-adjusted z-score is inactive: 0.0232.

With CGAGCUGAGUGAUUGGUCATT against FXR1, the median seed-adjusted z-score is inactive: 0.131.

For AGUUCACCCUCGUACUCUATT against FURIN, the median seed-adjusted z-score is inactive: 0.0975.

In the case of CCAGGGUCAUCGAUCAGAATT against EPPK1, the median seed-adjusted z-score was inactive: 0.786.

GGGUUCCAAUAGAAACUUUTT against ACTL8: the median seed-adjusted z-score was inactive: 0.

As for UGAUAAGUAUGCUUCAGAATT against RAB12, the median seed-adjusted z-score was inactive: -0.185.

Turning to GAAUACUCAUUGAUAAGCUTT against RASSF9, the median seed-adjusted z-score is inactive: 0.314.

GGUUUCUACAGUCUGCAAATT against MID2: the median seed-adjusted z-score was inactive: -0.0363.

With GUAUGUUCAGGAUAAUGGATT against CTSL1, the median seed-adjusted z-score is inactive: 0.378.

For the sequence CAAAAGACAUACGAAGUUATT against GUF1, the median seed-adjusted z-score is inactive: 0.119.

For the sequence CGACUCUAAUGAUGAGCGATT against DNAJC16, the median seed-adjusted z-score was inactive: 0.

Take CAAUUAAGCUUUCGAGUAUTT against CYP7B1: the median seed-adjusted z-score was inactive: 0.598.

With CCCAAUCAAUGAACGGAGATT against SMC5, the median seed-adjusted z-score was inactive: 0.0666.

Take UGAUCGAGAUGGUACAAGATT against APTX: the median seed-adjusted z-score is inactive: -0.131.

Take UGCACGAUCUUCUACCCAATT against TKTL1: the median seed-adjusted z-score is inactive: -0.495.

Consider GAAAGUUCAUCUACUUAGATT against TNFRSF10A, for which the median seed-adjusted z-score is inactive: 0.129.

Regarding CUGGAUCACUGUAACAGUATT against RNF138, the median seed-adjusted z-score was inactive: 0.265.

Consider CUAGAGCUACCAUCCCGAATT against EIF4G3, for which the median seed-adjusted z-score is inactive: -0.0562.

In the case of CUGUAGAAAUGUAUCCUGATT against SOD1, the median seed-adjusted z-score was inactive: -0.8.

With GCUUUGCUUUUCUAACAGATT against SDR42E1, the median seed-adjusted z-score was inactive: -0.109.

Take GUAACUUCCGUGACCCUAATT against TDRD6: the median seed-adjusted z-score was inactive: 0.

For the sequence AGGCCGAGAUUAUUGCCGATT against HNRNPA0, the median seed-adjusted z-score was inactive: 0.149.

With AGAGUUUCGCUGUCCUGUATT against C8G, the median seed-adjusted z-score was inactive: -0.622.

As to CAAAUACAGUGAGGACAUUTT against GPR83, the median seed-adjusted z-score was inactive: 0.105.

CCAGAGACAGUGACACGGATT against PTPRCAP: the median seed-adjusted z-score is inactive: 0.372.

As to CAUCAAUUUGAGUUGUUCATT against PGRMC2, the median seed-adjusted z-score was inactive: -0.223.

As for AGCAGCAGCCUAAACUAUATT against WFDC10A, the median seed-adjusted z-score is inactive: -0.439.

On to CACUGAUGCUCGGUCCAAATT against HMCN1, for which the median seed-adjusted z-score was inactive: 0.00218.

GGCUUAAAGCAAGCGGAUATT against CPS1: the median seed-adjusted z-score was inactive: -0.247.

On to CAGACUAAACUAUAGCGAUTT against SENP6, for which the median seed-adjusted z-score is active: -1.03.

GACUUACCAUUAUUCUGAATT against SELL: the median seed-adjusted z-score was inactive: 0.554.

As for GGAUCAAGAUUAUUAACCATT against FOXM1, the median seed-adjusted z-score was inactive: -0.399.

On to GCAUGAUUGAUGAUAUGAUTT against MOV10L1, for which the median seed-adjusted z-score was inactive: -0.0497.

Turning to GACUCGAGAUCAACAGCAATT against SUFU, the median seed-adjusted z-score was inactive: -0.263.

As for GCUCAUCGUGGGUCUCCUATT against POR, the median seed-adjusted z-score is inactive: 0.189.

In the case of GGAAGAGUCUGAUCCGACATT against GDPD3, the median seed-adjusted z-score is inactive: -0.0754.

Regarding UCGUGGCGCUGUGCAAGAATT against HIC1, the median seed-adjusted z-score is inactive: 0.523.

Regarding GCUGUAAACAGGUGGAAAATT against RARRES3, the median seed-adjusted z-score was inactive: -0.033.

Turning to CCUCGAUCCUGAGAUUGUATT against CDK5, the median seed-adjusted z-score was inactive: 0.402.

Take GAUGCUACUUUAGAAUUAATT against GNPDA2: the median seed-adjusted z-score is inactive: -0.422.

Turning to GGACCGGUACGAAUUCUCUTT against IKZF4, the median seed-adjusted z-score was inactive: -0.426.

Turning to CAAACAAGGAUGUUCGAAATT against EIF3E, the median seed-adjusted z-score was inactive: 0.549.

As for GCCUGUUGCUCAUGACUUUTT against KCNJ4, the median seed-adjusted z-score was inactive: -0.492.

In the case of CAUCAUUACCAGAGCUACATT against RLN1, the median seed-adjusted z-score is inactive: 0.0637.

Take GGACUACAUGAAUGGAACATT against NMNAT1: the median seed-adjusted z-score is inactive: 0.22.

In the case of CCCAUAUGAUUACCCAUUUTT against MYH2, the median seed-adjusted z-score was inactive: -0.73.

On to GGAUUAAAGUGUGAAGACUTT against PRKCD, for which the median seed-adjusted z-score was inactive: -0.236.

On to GGAUUAAAGUAUCCUGGAATT against PON1, for which the median seed-adjusted z-score is inactive: 0.

Consider GGACAUCUUUAGUACCAGATT against AGFG2, for which the median seed-adjusted z-score is inactive: -0.289.

AUAUCAUUCCAGUCUCAUATT against ZNF154: the median seed-adjusted z-score was inactive: 0.

On to GACCCUAAGCAGUAUAAGATT against CHSY3, for which the median seed-adjusted z-score is inactive: -0.113.

As for CAGGCGCCUGAAGUACAUATT against SLC35A2, the median seed-adjusted z-score is active: 1.06.

With AGAUAGCAGAGAGUCUUUUTT against NKIRAS2, the median seed-adjusted z-score was inactive: 0.111.

Consider CGCUAUCCCAAUCGCUUUATT against CYB5R1, for which the median seed-adjusted z-score is inactive: 0.

Consider GCCUCGAAGUGCCUCUAUATT against DNAJB11, for which the median seed-adjusted z-score is inactive: -0.0495.

Turning to AGAGCAUGCAGGUACCCUUTT against CCL1, the median seed-adjusted z-score is inactive: 0.537.

On to ACGUAGGCGGCAUCAAGUATT against KCNG1, for which the median seed-adjusted z-score is inactive: -0.00995.

On to CUAACGUAGAGGAAGCAUUTT against RAB11B, for which the median seed-adjusted z-score is inactive: -0.857.

In the case of GGAAUUCGGUGAUGUAUGATT against CACNA1C, the median seed-adjusted z-score is inactive: 0.

Take GCAUGUGGGCAGAACAAAATT against GHRH: the median seed-adjusted z-score was inactive: -0.16.

On to GGGUUACAGAGUCAGCGAATT against CACNB4, for which the median seed-adjusted z-score is inactive: -0.223.

Take CGCCCAUAUUCUUAUGAAATT against ADRB2: the median seed-adjusted z-score was inactive: 0.0987.

Turning to CAGAGGUUCUCAGACCGGATT against CASP9, the median seed-adjusted z-score is inactive: -0.0982.

For the sequence UGAUCAUCCGGACUCCAUATT against HDAC8, the median seed-adjusted z-score is inactive: 0.835.

Take CUGAGUCCAUUGUCCUAUATT against BCO2: the median seed-adjusted z-score was inactive: -0.183.

Regarding GGUGAGAUGUCGUACACCATT against CYP4X1, the median seed-adjusted z-score was inactive: 0.546.

Turning to GGUGGACUCAGAUCACAGUTT against PEF1, the median seed-adjusted z-score is inactive: 0.651.

For CAUACCUACCGGCUCAUUATT against USP26, the median seed-adjusted z-score is inactive: -0.0505.

For AAGCUUUAAGAGUCAUUUATT against CDKN1C, the median seed-adjusted z-score was inactive: -0.0497.

Regarding UGAGUAAACUGAUUCCUAATT against ITGB7, the median seed-adjusted z-score is inactive: 0.443.

Regarding CGUGACCUGUAUUUGAAAATT against AMPD3, the median seed-adjusted z-score is inactive: -0.0865.

In the case of “GGCUAGAUGAGUGUCAGAUTT against ST6GALNAC4”, the median seed-adjusted z-score was inactive: -0.39.

For GGACGAACGAAGGACUAUUTT against FNBP1L, the median seed-adjusted z-score is inactive: -0.0815.

Turning to CUGUAGCAAUUGGAGUAAATT against WRN, the median seed-adjusted z-score is inactive: -0.00482.

For the sequence CCAAGACUCUUUGUACUCATT against PDE4D, the median seed-adjusted z-score was inactive: 0.

In the case of CGAGAUGCCGGUACUUAAATT against RASSF2, the median seed-adjusted z-score was inactive: -0.649.

As for ACUACAUCGUUAUUUUCUATT against FOXD4L1, the median seed-adjusted z-score was inactive: 0.271.

GCAGAGACCUACAAAAAGATT against RCN3: the median seed-adjusted z-score was active: -2.44.

For the sequence CCAUUACAUUAUAAGAGUUTT against PPIG, the median seed-adjusted z-score was inactive: -0.0192.

For GCCCAGUACAAAUUCUUCATT against RNASE6, the median seed-adjusted z-score was inactive: 0.832.

Take GCCCUGAUUUGAAGGGAAATT against AIF1: the median seed-adjusted z-score is inactive: -0.0293.

In the case of CAUUAGCAAUUGUAGCAAUTT against TMPRSS11F, the median seed-adjusted z-score is inactive: -0.289.

For CGAAUACAAGAACGCAGAATT against KLRC2, the median seed-adjusted z-score was inactive: -0.472.

As for GCACCCGUGUGGUUGCUAATT against PTTG1, the median seed-adjusted z-score was inactive: -0.459.

Turning to GGGUAUUUUGAUUUCCGAATT against PGBD1, the median seed-adjusted z-score was inactive: 0.925.

As to GCUAUAUCAGGAUGAGAUATT against ATG5, the median seed-adjusted z-score is inactive: -0.0597.

Turning to AGAAUCUGUUCACCGCAAATT against RFPL1, the median seed-adjusted z-score was inactive: 0.195.

Consider CGAUCGGAAUGUAUACCCATT against SGCE, for which the median seed-adjusted z-score is inactive: 0.202.

For the sequence GGAUAUAAACCAGUAUGGATT against ZMIZ1, the median seed-adjusted z-score was inactive: -0.382.

Turning to GGACACUUUUAGUUAAGAATT against STK17A, the median seed-adjusted z-score is inactive: 0.

Regarding CGACCUUAAACGUAUAGUATT against CFI, the median seed-adjusted z-score is inactive: -0.596.

GCGUAAGAAUGACCGCCUATT against COPG: the median seed-adjusted z-score is inactive: 0.175.

On to GAAUGAGGCAUAUCAAGCATT against TUBD1, for which the median seed-adjusted z-score is inactive: -0.00491.

For GCCGUUUCAUGUUUGUCUATT against TRPV1, the median seed-adjusted z-score is inactive: -0.12.

CAGUCCUACAGGUUCAUCATT against PIP5K1C: the median seed-adjusted z-score was inactive: -0.13.

Consider GGUAAAGGGAAGUAACUAUTT against SLC2A13, for which the median seed-adjusted z-score was inactive: -0.0451.

On to AGAACGUGCUCUUCGCUCATT against PRKAR1B, for which the median seed-adjusted z-score is inactive: -0.0406.

On to GGAUAGUGAUGAUGUCUAUTT against GPR98, for which the median seed-adjusted z-score was inactive: -0.509.

For GCAAGCAUACGUCAAUGUATT against GTF3C5, the median seed-adjusted z-score was inactive: 0.493.

As to CGGACUUUCAGAUCCCUAUTT against SYT4, the median seed-adjusted z-score is inactive: -0.354.

Turning to CCCUUCGAGUGAAGAAGAATT against STYXL1, the median seed-adjusted z-score is inactive: -0.311.

As for CCACGGCAAGUUAAAAUCATT against CD84, the median seed-adjusted z-score was inactive: 0.629.

Turning to GGUUGAUCACAGACGAUUATT against CYP2R1, the median seed-adjusted z-score was inactive: -0.981.

With CCUGUGAUAUUGGAACCUUTT against SYT14, the median seed-adjusted z-score is inactive: 0.0794.
